Some of the results follow. Most entries show no effect beyond the scatter of the controls.

By UniProt entry, the sequences of proteins in these tests, tags left out. Where a name states a change or a piece, a line headed by the entry shows the natural chain unless it says otherwise.
UniProt Q9NRR6: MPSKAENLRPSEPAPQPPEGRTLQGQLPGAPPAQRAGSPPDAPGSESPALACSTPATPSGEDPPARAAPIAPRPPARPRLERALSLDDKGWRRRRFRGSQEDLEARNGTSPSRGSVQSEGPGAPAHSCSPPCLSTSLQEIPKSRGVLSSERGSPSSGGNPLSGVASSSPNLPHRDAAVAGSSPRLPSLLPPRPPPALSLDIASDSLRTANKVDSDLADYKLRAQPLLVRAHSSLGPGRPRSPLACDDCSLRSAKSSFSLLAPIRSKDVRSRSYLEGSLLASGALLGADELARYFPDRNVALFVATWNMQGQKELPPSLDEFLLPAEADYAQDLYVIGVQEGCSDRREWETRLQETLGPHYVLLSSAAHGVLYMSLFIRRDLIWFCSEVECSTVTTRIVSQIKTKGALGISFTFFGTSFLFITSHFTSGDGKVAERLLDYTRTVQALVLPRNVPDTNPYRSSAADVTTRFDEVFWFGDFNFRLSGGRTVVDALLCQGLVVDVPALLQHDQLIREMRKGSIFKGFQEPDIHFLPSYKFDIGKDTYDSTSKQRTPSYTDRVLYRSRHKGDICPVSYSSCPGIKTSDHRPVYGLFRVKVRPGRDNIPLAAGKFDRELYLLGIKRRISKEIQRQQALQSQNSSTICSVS
UniProt Q9NUU7: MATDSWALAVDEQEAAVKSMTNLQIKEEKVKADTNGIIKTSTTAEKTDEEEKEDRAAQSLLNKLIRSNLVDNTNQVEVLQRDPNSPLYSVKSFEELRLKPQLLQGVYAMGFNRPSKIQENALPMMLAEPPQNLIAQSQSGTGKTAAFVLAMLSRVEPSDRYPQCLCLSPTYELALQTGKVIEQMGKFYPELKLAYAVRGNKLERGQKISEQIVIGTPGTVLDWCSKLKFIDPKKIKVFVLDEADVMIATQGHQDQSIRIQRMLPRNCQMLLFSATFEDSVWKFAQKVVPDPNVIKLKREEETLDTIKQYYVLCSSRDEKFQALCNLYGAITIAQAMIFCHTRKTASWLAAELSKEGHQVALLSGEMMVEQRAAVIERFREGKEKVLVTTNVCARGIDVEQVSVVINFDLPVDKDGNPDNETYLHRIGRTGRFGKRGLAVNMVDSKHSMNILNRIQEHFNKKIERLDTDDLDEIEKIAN
UniProt Q9NVI7: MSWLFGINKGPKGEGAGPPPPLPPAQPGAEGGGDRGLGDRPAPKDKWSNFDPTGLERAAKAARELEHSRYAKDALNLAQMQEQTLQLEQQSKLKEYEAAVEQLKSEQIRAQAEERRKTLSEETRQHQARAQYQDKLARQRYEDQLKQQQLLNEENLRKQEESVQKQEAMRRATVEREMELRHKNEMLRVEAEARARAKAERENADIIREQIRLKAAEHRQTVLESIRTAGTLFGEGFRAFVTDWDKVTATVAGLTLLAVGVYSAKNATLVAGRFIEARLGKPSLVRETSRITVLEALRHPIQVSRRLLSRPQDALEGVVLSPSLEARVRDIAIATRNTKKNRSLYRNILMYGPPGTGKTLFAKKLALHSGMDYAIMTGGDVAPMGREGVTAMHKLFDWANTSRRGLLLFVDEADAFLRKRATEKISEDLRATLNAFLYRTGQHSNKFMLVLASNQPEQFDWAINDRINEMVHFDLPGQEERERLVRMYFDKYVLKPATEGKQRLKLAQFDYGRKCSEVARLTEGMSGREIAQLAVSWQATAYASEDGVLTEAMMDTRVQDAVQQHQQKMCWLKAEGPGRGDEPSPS
UniProt Q9NUQ6: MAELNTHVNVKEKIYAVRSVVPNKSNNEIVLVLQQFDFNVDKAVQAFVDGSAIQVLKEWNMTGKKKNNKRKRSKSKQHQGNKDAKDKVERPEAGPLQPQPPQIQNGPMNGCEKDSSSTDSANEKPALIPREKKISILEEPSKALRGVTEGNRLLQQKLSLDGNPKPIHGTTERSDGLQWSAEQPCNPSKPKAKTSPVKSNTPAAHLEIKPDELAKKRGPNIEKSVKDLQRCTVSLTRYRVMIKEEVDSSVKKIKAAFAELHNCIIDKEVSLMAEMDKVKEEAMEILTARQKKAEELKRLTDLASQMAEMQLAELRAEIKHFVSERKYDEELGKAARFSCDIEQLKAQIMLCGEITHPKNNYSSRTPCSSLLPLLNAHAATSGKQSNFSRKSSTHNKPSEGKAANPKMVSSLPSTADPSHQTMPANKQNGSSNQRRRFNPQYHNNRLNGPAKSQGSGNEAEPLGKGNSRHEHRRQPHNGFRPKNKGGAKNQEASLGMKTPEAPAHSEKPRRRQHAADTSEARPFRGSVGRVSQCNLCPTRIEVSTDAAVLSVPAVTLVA
UniProt Q9NUX5: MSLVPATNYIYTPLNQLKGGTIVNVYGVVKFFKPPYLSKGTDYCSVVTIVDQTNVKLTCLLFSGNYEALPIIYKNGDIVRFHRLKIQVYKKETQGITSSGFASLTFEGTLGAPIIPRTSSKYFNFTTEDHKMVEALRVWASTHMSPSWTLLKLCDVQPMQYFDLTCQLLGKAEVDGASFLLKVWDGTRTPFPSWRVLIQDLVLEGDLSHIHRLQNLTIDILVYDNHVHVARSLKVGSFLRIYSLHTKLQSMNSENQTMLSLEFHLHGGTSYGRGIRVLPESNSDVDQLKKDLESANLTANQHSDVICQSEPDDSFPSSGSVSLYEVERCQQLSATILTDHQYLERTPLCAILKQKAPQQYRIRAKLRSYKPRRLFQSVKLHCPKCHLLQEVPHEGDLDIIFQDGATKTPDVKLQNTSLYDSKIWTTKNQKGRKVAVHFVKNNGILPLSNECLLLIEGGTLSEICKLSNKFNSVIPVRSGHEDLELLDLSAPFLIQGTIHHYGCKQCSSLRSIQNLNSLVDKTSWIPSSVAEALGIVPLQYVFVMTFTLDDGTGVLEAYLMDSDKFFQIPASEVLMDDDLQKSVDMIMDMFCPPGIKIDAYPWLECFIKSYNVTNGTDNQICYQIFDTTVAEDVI
UniProt Q9NWS1: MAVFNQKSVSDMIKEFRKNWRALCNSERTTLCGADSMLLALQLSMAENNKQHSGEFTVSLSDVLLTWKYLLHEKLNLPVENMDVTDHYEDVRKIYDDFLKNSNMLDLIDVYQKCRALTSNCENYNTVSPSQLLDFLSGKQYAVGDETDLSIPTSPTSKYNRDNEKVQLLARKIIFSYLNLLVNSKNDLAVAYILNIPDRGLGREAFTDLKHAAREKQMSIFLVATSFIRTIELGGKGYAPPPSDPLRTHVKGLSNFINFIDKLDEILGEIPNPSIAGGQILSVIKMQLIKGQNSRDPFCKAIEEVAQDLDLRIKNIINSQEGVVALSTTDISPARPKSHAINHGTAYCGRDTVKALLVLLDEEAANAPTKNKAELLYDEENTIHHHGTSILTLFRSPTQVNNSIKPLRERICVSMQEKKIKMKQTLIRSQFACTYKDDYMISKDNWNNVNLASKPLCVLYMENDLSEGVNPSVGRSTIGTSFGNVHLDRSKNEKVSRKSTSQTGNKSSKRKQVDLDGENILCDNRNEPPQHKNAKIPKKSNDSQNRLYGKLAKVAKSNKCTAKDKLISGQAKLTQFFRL
UniProt Q9NW82: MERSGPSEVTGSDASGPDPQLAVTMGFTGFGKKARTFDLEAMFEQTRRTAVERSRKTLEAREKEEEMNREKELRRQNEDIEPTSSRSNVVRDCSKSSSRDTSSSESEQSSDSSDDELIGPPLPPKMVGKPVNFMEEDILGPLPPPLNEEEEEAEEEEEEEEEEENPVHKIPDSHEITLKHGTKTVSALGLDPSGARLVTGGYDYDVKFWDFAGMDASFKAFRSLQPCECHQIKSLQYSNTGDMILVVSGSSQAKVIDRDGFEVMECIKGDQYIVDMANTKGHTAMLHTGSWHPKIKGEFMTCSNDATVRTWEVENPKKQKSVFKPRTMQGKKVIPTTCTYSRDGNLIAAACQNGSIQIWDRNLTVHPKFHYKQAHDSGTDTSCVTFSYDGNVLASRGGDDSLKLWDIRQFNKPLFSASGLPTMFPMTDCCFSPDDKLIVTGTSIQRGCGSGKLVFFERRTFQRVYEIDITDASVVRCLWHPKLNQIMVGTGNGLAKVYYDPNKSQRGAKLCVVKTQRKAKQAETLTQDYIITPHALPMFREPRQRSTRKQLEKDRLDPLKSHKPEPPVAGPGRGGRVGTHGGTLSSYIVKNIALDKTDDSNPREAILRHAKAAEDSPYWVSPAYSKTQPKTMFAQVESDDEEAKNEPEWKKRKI
UniProt Q9HD40: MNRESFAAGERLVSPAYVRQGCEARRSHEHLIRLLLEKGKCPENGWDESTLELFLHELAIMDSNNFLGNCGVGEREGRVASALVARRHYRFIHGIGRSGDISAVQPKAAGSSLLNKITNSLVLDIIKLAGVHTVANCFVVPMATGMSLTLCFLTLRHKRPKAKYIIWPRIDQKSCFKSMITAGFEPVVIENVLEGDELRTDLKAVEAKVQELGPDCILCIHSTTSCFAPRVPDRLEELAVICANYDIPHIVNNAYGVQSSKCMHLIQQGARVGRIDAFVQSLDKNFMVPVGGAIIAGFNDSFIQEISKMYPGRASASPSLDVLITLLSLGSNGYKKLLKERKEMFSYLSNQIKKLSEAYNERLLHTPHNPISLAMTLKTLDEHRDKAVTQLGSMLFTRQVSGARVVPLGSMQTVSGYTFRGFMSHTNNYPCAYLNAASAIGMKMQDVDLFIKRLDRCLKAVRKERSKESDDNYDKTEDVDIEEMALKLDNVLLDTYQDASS
UniProt Q9NWM8: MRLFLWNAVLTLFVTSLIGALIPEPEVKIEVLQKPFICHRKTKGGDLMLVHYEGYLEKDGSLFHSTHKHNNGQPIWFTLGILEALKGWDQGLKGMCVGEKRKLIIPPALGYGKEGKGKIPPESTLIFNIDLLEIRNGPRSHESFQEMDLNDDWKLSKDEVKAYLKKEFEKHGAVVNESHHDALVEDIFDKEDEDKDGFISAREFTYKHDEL
UniProt Q9NR83: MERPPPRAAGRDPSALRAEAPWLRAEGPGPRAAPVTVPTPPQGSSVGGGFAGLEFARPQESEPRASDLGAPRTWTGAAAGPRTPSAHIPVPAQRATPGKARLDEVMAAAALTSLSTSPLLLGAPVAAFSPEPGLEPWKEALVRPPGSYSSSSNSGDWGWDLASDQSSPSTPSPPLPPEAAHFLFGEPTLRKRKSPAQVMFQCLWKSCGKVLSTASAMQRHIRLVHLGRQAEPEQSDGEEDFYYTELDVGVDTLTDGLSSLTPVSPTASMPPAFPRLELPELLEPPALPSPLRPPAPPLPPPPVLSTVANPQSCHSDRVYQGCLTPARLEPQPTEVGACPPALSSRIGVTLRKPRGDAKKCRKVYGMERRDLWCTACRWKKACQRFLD
UniProt Q9NRR5, whole entry: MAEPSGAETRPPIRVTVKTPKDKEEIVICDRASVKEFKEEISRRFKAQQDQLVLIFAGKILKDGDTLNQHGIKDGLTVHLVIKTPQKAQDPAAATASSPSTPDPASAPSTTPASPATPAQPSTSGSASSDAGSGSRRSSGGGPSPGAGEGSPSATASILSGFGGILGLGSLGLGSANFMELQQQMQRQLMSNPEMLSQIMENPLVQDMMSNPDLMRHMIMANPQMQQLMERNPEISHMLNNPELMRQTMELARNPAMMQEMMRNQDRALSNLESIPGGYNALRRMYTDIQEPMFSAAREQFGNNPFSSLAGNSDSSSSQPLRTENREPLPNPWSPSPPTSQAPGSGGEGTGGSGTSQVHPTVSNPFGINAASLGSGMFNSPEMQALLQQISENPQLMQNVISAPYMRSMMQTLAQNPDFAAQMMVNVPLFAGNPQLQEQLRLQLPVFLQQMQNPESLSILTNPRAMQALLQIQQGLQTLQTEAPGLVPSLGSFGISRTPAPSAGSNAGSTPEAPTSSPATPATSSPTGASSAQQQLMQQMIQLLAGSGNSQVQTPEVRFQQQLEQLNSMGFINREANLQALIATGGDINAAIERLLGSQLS
UniProt Q9NWU2, whole entry: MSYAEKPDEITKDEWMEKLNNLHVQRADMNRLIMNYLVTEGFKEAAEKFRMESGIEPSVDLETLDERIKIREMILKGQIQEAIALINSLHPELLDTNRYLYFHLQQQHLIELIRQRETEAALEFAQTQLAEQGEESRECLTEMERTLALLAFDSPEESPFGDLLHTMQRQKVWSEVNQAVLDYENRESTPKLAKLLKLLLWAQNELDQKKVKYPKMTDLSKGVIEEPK
UniProt Q9NVX0: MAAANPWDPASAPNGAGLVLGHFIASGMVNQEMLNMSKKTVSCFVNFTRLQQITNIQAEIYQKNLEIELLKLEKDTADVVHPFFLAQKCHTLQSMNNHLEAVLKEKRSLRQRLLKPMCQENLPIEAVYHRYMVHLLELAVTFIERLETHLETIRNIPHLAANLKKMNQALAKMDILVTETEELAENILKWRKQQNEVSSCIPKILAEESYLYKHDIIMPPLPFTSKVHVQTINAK

Compound in this experiment: Cc1nc(Nc2ncc(C(=O)Nc3c(C)cccc3Cl)s2)cc(N2CCN(CCO)CC2)n1 [dasatinib]
Kind of experiment: log2 fold change of tryptic peptide abundance, ligand vs vehicle (limited proteolysis) (log2 ratio); higher = more trypsin-susceptible (destabilized). The conditions noted are these: ligand concentration: 5 uM; sample: K562 cleared lysate.

Regarding “INPP5E (peptide sequence: TANKVDSDLADYK, peptide start residue: 208) (UniProt Q9NRR6)”, the log2 fold change came to 1.02. The same measure for “DDX19A (peptide sequence: TSTTAEKTDEEEKEDR, peptide start residue: 40) (UniProt Q9NUU7)”: -0.0445. Under “ATAD3A (peptide sequence: VQDAVQQHQQK, peptide start residue: 606) (UniProt Q9NVI7)” stands 1.57; under “SPATS2L (peptide sequence: TPEAPAHSEKPR, peptide start residue: 498) (UniProt Q9NUQ6)”, -0.188; under “POT1 (peptide sequence: FNSVIPVR, peptide start residue: 470) (UniProt Q9NUX5)”, -0.156. In the case of “PARPBP (peptide sequence: SPTQVNNSIKPLR, peptide start residue: 396) (UniProt Q9NWS1)”, the log2 fold change stood at 0.343. As to “WDR70 (peptide sequence: QNEDIEPTSSR, peptide start residue: 76) (UniProt Q9NW82)”, the log2 fold change is -0.282. Under “SEPSECS (peptide sequence: SGDISAVQPK, peptide start residue: 98) (UniProt Q9HD40)” stands 0.35. Under “FKBP14 (peptide sequence: SHESFQEMDLNDDWK, peptide start residue: 140) (UniProt Q9NWM8)” stands 0.128.

For “UniProt Q9NR83 (peptide sequence: KVYGMER, peptide start residue: 362)”, the log2 fold change was -0.00118. The same measure for “UBQLN4 (peptide sequence: DKEEIVICDR, peptide start residue: 22) (UniProt Q9NRR5)”: 0.087; for “UniProt Q9NWU2 (peptide sequence: ECLTEMER, peptide start residue: 138)”: 0.222. Under “UniProt Q9NVX0 (peptide sequence: TVSCFVNFTR, peptide start residue: 40)” stands 0.259.

(Values after the supplement of paper PMC12819154, “High-throughput peptide-centric local stability assay extends protein–ligand identification to membrane proteins, tissues and bacteria” (Nature Structural & Molecular Biology, 2025).)
